The results are deposited in PubChem (AID1159506; NCATS, 2015).

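Luminescence from an EWS-FLI1 target-promoter (NR0B1) reporter, set against a CMV-promoter reporter, two days after silencing single genes in TC32 Ewing sarcoma cells.
Each siRNA was applied at 20 nM.
A z-score of the log NR0B1-over-CMV signal, less the median of siRNAs with the same seed; more negative means a stronger specific loss of the NR0B1 reporter.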

The strongest results of the screen are mostly left out here.
Sequences are the guide (antisense) strand, without overhang.

| # | strand | target gene | seed-corrected z-score |
|---|---|---|---|
| 1 | `UCAGCAUCAUAUGGAUUCC` | COPRS | 0.4034 |
| 2 | `UGUAAUGUUGUGGUGAAGG` | ARL2BP | 1.331 |
| 3 | `AUUCAGAAAAGAGUCGCCC` | MYBL1 | 0.719 |
| 4 | `UCCUCGACAGCUGUAUUCC` | SUMF1 | 0.1477 |
| 5 | `AUACAGUCAAGCUCCACCA` | PRAMEF7 | 0.7572 |
| 6 | `UACACGACAAUUUCAUCGC` | MAP3K9 | -0.4328 |
| 7 | `UCAGCUUCGUCGAUCAUCU` | CETN1 | -0.3108 |
| 8 | `ACCUAUAAUAUUAAUGGGC` | LAP3 | -0.2431 |
| 9 | `AUAUAUAGAUGCAAGAUGC` | COPS4 | 0.4998 |
| 10 | `AAAUGUAUGCUCUUUCUUC` | LOC255187 | 0.6547 |
| 11 | `AAAGUUGCCGCAAACCUAG` | FIGF | -0.9355 |
| 12 | `AACUGAACCAGGUUCCCGG` | PLA2G2E | -0.1071 |
| 13 | `UGGUGUUUUAGGACCAUUC` | NFE2L2 | -0.7831 |
| 14 | `UUGCAGAAUGGUUAAAAGC` | ZNF93 | 1.012 |
| 15 | `UUAGCAUCGAGAGAAGUAG` | OSER1 | 0.1252 |
| 16 | `AACUCUUAAACCUAUAGCC` | LINC01124 | -0.4598 |
| 17 | `UAAAUUUGUAGGGAUUCCC` | ZNF66 | 0.7247 |
| 18 | `UUCCAAACCUAUCAAGUGC` | POTEA | -0.3543 |
| 19 | `UUUCGAAAGAUUCAUGGUG` | MAP7 | -0.2007 |
| 20 | `UAUCAUGCACCAUAUGUUC` | ZFY | -1.473 |
| 21 | `UCAUUGCCGAUGUCAUUGC` | LRRC74A | 0.7669 |
| 22 | `UACUUGGAAAUAGCUGGUG` | MILR1 | -0.04088 |
| 23 | `UAACUAUCUAAUCCAAUUA` | LINC01347 | 0.6278 |
| 24 | `UAGCAUACUGUUCAAGUCC` | CCT8 | -0.9286 |
| 25 | `AAAGAUACAGCUACCGUAU` | OR6C6 | -0.1607 |
| 26 | `UCAGCAUGAUGUGAAUUGC` | TMEM30C | 2.041 |
| 27 | `UACUAAAUGAGGUUUCACC` | COQ10B | -0.2178 |
| 28 | `UUAAGGGACUGCUUUGUUG` | SOCS5P5 | 0.1641 |
| 29 | `AAGGCUAAUACUGAGUCCC` | ECH1 | 0.4406 |
| 30 | `UCGCCGAUCAGCUUCAGCU` | RPS9 | 0.4312 |
| 31 | `UUUUGGUUACUAGCUUCUC` | SRGAP2 | -0.4541 |
| 32 | `UCUCAUAAUAUCGAUAAGG` | CPEB2 | 0.7431 |
| 33 | `AUCGGUACGAUAGGGAGUC` | ADGRL2 | 0.8334 |
| 34 | `UGUUAUCUAACAUCUCACC` | STX3 | 0.9862 |
| 35 | `AUUGUAGUGAAAUUCUUUC` | HOXB7 | 0.5212 |
| 36 | `UUCGUGAGCACUACCACUC` | CPE | -1.056 |
| 37 | `UUGUUGUUGAGCGCGUUGA` | AQP5 | 0.6829 |
| 38 | `ACAGUAUCAAAGUCGGUGC` | CABP7 | 0.2139 |
| 39 | `UUGGGAAACAGUAUUUGGG` | ACTR1B | -0.03427 |
| 40 | `UAUCUUGUUCCAUAAGCGC` | HORMAD1 | -1.046 |
| 41 | `UUUGUUCAAGGUCAUAAGC` | DYNLL1P7 | 0.5415 |
| 42 | `UAAGGUGCGACUCUACAAG` | SHOX2 | -1.895 |
| 43 | `UAAGUAUUCCAUCCAAAGG` | TKTL2 | 0.003282 |
| 44 | `AGCGUAGCCAAGAAGAACA` | FAM153C | -0.9191 |
| 45 | `UAUCGAAUAAAGGUUUCUC` | LGSN | 0.2538 |
| 46 | `AACGUGAAGGGUGAUGGUG` | LOC729316 | -0.1207 |
| 47 | `UACUCGUUGACUUUCCGGC` | ADRM1 | -1.268 |
| 48 | `UUCUUCUCAAGCACGAUGG` | FCGBP | 1.532 |
| 49 | `UGAGAAUCAACCUUGGGUC` | C7orf26 | -0.7589 |
| 50 | `UAUCAGGUCUAUAACGACC` | DLGAP5 | -0.306 |
| 51 | `UACUAUUGCAGAUGACCUC` | CHST2 | 0.4154 |
| 52 | `UUGGGUACAGUAAAGCUCU` | TRABD2B | -0.2965 |
| 53 | `UUUUCGAUAUGUUCAGGUC` | EFCC1 | -0.1871 |
| 54 | `UGCUAUCUCAAACAGUUGC` | GUF1 | -0.1242 |
| 55 | `UCUCCUAUAAGGUCCCUUG` | CDC25A | -0.009778 |
| 56 | `AGUAUUUCCACGUCCGUUG` | UPF1 | -0.7779 |
| 57 | `UUUCUUCUGCUGUAGAGGC` | LAMB2 | 0.6945 |
| 58 | `UUCUCUUAAAGCUAGGGUC` | TGFA | 0.1474 |
| 59 | `UCUAGUGUCAGCUUCACCC` | GPCPD1 | 0.02585 |
| 60 | `UAGUCUUCAAUGCCGCUCC` | GRAMD1A | 0.6887 |
| 61 | `AUAGGGAUCGUGUUGUUGA` | TAS1R2 | -0.2038 |
| 62 | `UUGGUCAGGAUUUUGCGGC` | CCDC159 | 0.3059 |
| 63 | `UGAAAGAUGGGAUUCACCU` | SPRED3 | -0.3431 |
| 64 | `AAAUGGUUAAUCUGAUUGC` | OR11L1 | -1 |
| 65 | `UCACCUUCAGGAUCCAUCC` | SUB1 | -1.093 |
| 66 | `AGAGCAACUGGCUCUUUGG` | NXF2B | 0.3073 |
| 67 | `AAUGUAACAAGACCUUUAG` | ASNS | -0.1289 |
| 68 | `UUCUUGUAGUGGAUGGAGC` | AIM1L | 0.6207 |
| 69 | `UUCGCUAUCAGAAUCUUCA` | RIPPLY2 | 0.0135 |
| 70 | `UCAUGGAUCUCGGCAAUGC` | PIK3R2 | -1.006 |
| 71 | `AACGGUAAUGCUGAGGUGG` | RUNX1T1 | -0.361 |

6 of the entries, repeated:

For UACUCGUUGACUUUCCGGC against ADRM1 the result was seed-corrected z-score -1.268.
For UUUGUUCAAGGUCAUAAGC against DYNLL1P7 the result was seed-corrected z-score 0.5415.
For AUAGGGAUCGUGUUGUUGA against TAS1R2 the result was seed-corrected z-score -0.2038.
For ACAGUAUCAAAGUCGGUGC against CABP7 the result was seed-corrected z-score 0.2139.
For AAAUGGUUAAUCUGAUUGC against OR11L1 the result was seed-corrected z-score -1.
For UUAAGGGACUGCUUUGUUG against SOCS5P5 the result was seed-corrected z-score 0.1641.